Results from doi:10.1101/2021.04.21.440798.
No constants are given. Whether binding was seen depends on the method and setting. In cells and extracts the contact can be indirect. These calls come from enrichment with a bait or labelling near it, and not all partners need be listed. For some assays here: A no says only that the protein was not detected with the bait. Blank lines part the entries; values can stand above or below the binder they belong to.

Amino acid sequences for entries named in this document (tags omitted).
UniProt Q86VP1: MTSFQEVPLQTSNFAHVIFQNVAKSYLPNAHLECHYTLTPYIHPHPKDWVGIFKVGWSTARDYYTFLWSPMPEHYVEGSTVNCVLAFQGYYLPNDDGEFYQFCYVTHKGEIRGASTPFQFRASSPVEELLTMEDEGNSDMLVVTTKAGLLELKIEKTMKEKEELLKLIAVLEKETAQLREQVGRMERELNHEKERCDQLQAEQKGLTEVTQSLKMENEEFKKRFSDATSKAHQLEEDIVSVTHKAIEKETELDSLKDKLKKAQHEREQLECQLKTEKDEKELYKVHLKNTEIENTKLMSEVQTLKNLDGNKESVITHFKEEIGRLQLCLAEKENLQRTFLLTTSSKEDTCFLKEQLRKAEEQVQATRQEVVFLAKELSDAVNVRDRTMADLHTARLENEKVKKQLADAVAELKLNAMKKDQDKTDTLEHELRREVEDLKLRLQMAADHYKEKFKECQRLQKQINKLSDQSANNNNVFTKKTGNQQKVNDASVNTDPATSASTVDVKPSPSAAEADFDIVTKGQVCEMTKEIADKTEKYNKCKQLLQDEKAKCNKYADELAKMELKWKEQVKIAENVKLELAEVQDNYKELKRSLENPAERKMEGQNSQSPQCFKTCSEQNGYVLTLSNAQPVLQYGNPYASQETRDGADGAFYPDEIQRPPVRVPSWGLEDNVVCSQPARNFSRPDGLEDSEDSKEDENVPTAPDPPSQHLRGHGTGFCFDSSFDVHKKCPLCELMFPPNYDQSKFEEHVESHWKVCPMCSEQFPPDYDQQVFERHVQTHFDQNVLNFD

How the values were obtained:
[1] = biological target: GFP-T6BP (TAX1BP1 / TRAF6-Binding Protein fused to GFP), Q86VP1; assay: affinity purification with mass spectrometry; conditions: remark: other sources report otherwise
[2] = biological target: GFP-T6BP (TAX1BP1 / TRAF6-Binding Protein fused to GFP) (UniProt Q86VP1); assay: affinity purification with mass spectrometry

binding [1]: no binding
B1: Myosin-VI, Q9UM54 1-1294 (protein)
chain: MEDGKPVWAPHPTDGFQMGNIVDIGPDSLTIEPLNQKGKTFLALINQVFPAEEDSKKDVEDNCSLMYLNEATLLHNIKVRYSKDRIYTYVANILIAVNPYFDIPKIYSSEAIKSYQGKSLGTRPPHVFAIADKAFRDMKVLKMSQSIIVSGESGAGKTENTKFVLRYLTESYGTGQDIDDRIVEANPLLEAFGNAKTVRNNNSSRFGKFVEIHFNEKSSVVGGFVSHYLLEKSRICVQGKEERNYHIFYRLCAGASEDIREKLHLSSPDNFRYLNRGCTRYFANKETDKQILQNRKSPEYLKAGSMKDPLLDDHGDFIRMCTAMKKIGLDDEEKLDLFRVVAGVLHLGNIDFEEAGSTSGGCNLKNKSAQSLEYCAELLGLDQDDLRVSLTTRVMLTTAGGTKGTVIKVPLKVEQANNARDALAKTVYSHLFDHVVNRVNQCFPFETSSYFIGVLDIAGFEYFEHNSFEQFCINYCNEKLQQFFNERILKEEQELYQKEGLGVNEVHYVDNQDCIDLIEAKLVGILDILDEENRLPQPSDQHFTSAVHQKHKDHFRLTIPRKSKLAVHRNIRDDEGFIIRHFAGAVCYETTQFVEKNNDALHMSLESLICESRDKFIRELFESSTNNNKDTKQKAGKLSFISVGNKFKTQLNLLLDKLRSTGASFIRCIKPNLKMTSHHFEGAQILSQLQCSGMVSVLDLMQGGYPSRASFHELYNMYKKYMPDKLARLDPRLFCKALFKALGLNENDYKFGLTKVFFRPGKFAEFDQIMKSDPDHLAELVKRVNHWLTCSRWKKVQWCSLSVIKLKNKIKYRAEACIKMQKTIRMWLCKRRHKPRIDGLVKVGTLKKRLDKFNEVVSVLKDGKPEMNKQIKNLEISIDTLMAKIKSTMMTQEQIQKEYDALVKSSEELLSALQKKKQQEEEAERLRRIQEEMEKERKRREEDEKRRRKEEEERRMKLEMEAKRKQEEEERKKREDDEKRIQAEVEAQLARQKEEESQQQAVLEQERRDRELALRIAQSEAELISDEAQADLALRRSLDSYPVSKNDGTRPKMTPEQMAKEMSEFLSRGPAVLATKAAAGTKKYDLSKWKYAELRDTINTSCDIELLAACREEFHRRLKVYHAWKSKNKKRNTETEQRAPKSVTDYDFAPFLNNSPQQNPAAQIPARQREIEMNRQQRFFRIPFIRPADQYKDPQSKKKGWWYAHFDGPWIARQMELHPDKPPILLVAGKDDMEMCELNLEETGLTRKRGAEILPRQFEEIWERCGGIQYLQNAIESRQARPTYATAMLQSLLK

binding [2]: binds
B2: DUB UPS15 (protein, UniProt Q9Y4E8 1-981)
chain: MAEGGAADLDTQRSDIATLLKTSLRKGDTWYLVDSRWFKQWKKYVGFDSWDKYQMGDQNVYPGPIDNSGLLKDGDAQSLKEHLIDELDYILLPTEGWNKLVSWYTLMEGQEPIARKVVEQGMFVKHCKVEVYLTELKLCENGNMNNVVTRRFSKADTIDTIEKEIRKIFSIPDEKETRLWNKYMSNTFEPLNKPDSTIQDAGLYQGQVLVIEQKNEDGTWPRGPSTPKSPGASNFSTLPKISPSSLSNNYNNMNNRNVKNSNYCLPSYTAYKNYDYSEPGRNNEQPGLCGLSNLGNTCFMNSAIQCLSNTPPLTEYFLNDKYQEELNFDNPLGMRGEIAKSYAELIKQMWSGKFSYVTPRAFKTQVGRFAPQFSGYQQQDCQELLAFLLDGLHEDLNRIRKKPYIQLKDADGRPDKVVAEEAWENHLKRNDSIIVDIFHGLFKSTLVCPECAKISVTFDPFCYLTLPLPMKKERTLEVYLVRMDPLTKPMQYKVVVPKIGNILDLCTALSALSGIPADKMIVTDIYNHRFHRIFAMDENLSSIMERDDIYVFEININRTEDTEHVIIPVCLREKFRHSSYTHHTGSSLFGQPFLMAVPRNNTEDKLYNLLLLRMCRYVKISTETEETEGSLHCCKDQNINGNGPNGIHEEGSPSEMETDEPDDESSQDQELPSENENSQSEDSVGGDNDSENGLCTEDTCKGQLTGHKKRLFTFQFNNLGNTDINYIKDDTRHIRFDDRQLRLDERSFLALDWDPDLKKRYFDENAAEDFEKHESVEYKPPKKPFVKLKDCIELFTTKEKLGAEDPWYCPNCKEHQQATKKLDLWSLPPVLVVHLKRFSYSRYMRDKLDTLVDFPINDLDMSEFLINPNAGPCRYNLIAVSNHYGGMGGGHYTAFAKNKDDGKWYYFDDSSVSTASEDQIVSKAAYVLFYQRQDTFSGTGFFPLDRETKGASAATGIPLESDEDSNDNDNDIENENCMHTN
